The record followed here is PubChem BioAssay AID1487 (National Center for Advancing Translational Sciences (NCATS), 2009).

The test is described as follows: qHTS Assay for Modulators of Lamin A Splicing. The conditions noted are these: HeLa LMNA splicing GFP/RFP minigene ratio, 48 h. In outline: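 S3 HeLa cells stably expressing lamin A-EGFP splicing minigene plus DsRed2, 600 cells/well, 48 h compound exposure at 37C. Laser-scanning cytometry; analysed as GFP (500-530 nm)/RFP (575-640 nm) total intensity ratio; 0.5% DMSO vehicle.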
Background: qHTS replaces the single test concentration by a dilution series.

Where [1] appears, read: measured here: RFP viability control channel.
[2] abbreviates: measured here: GFP splicing reporter channel.

Some of the results follow. These are further read-outs of the screen, such as a control signal, another cell line or another target. No call is given for them. Most of these compounds were active or inconclusive in the main read-out, so they are no random draw. The note in brackets gives the kind of curve behind each potency; many fits are weak.

What is called AC50 is the concentration at which the activity in the assay is half-maximal. Regarding `COc1ccc(S(=O)(=O)NCCSc2ccc(Cl)cc2)cc1OC`, under setting [1], the AC50 is 14.1 µM [rising, partial curve].

Regarding `O=C(Nn1cc(C(=O)N2CCN(c3ccccc3F)CC2)c2ccccc2c1=O)c1cnccn1`, the AC50 under setting [2] is 11.2 µM [falling, single point]. `COc1ccc(C(=O)Oc2c(CN3CCOCC3)cc(Cl)c3cccnc23)cc1`: the AC50 under setting [1] is 15.8 µM [rising, single point]. On to `COc1ccccc1C(=O)Nc1nnc(SCc2cc(=O)c3cc(Cl)ccc3[nH]2)s1`, for which the AC50 under setting [2] is 10 µM [falling, partial curve] and the concentration at half-maximal activity (AC50) under setting [1] is 10 µM [falling, partial curve, poor fit]. As for `CC(=O)c1ccc(N2CCN(C(=O)CCCc3nc4ccccc4s3)CC2)cc1`, the half-maximal activity concentration (AC50) under setting [1] was 25.1 µM [rising, single point].

In the case of `CC1(C)N=C(SCC(=O)Nc2ccccc2)C(c2ccc(Cl)cc2)=N1`, the concentration at half-maximal activity (AC50) under setting [1] was 11.2 µM [rising, partial curve].

`COc1cccc(S(=O)(=O)Nc2ccc(C(=O)Nc3ccncc3)cc2)c1`: the AC50 runs as follows: under setting [2], 15.8 µM [rising, single point]; under setting [1], 22.4 µM [rising, single point].

On to `COc1ccc(C(=S)N2CCCCC2)cc1Br`, for which the AC50 by setting is: under setting [2], 0.00501 µM [falling, full curve]; under setting [1], 0.00447 µM [falling, full curve, poor fit].

Turning to `COc1cc(OC)cc(C(=O)NCC(=O)OCC(=O)N2CC(C)CC(C)C2)c1` (configuration not stated), under setting [2], the AC50 was 0.00316 µM [falling, full curve, poor fit]. Consider `CCc1cccc2c(C(=O)CCl)c[nH]c12`, for which the AC50 under setting [1] is 35.5 µM [rising, single point]. As for `CC(C)N(CC(N)=O)C(=O)c1sc2cc(F)ccc2c1Cl`, the AC50 under setting [2] was 6.31 µM [rising, single point]. For `CC(C)COC(=O)NCCCOC(=O)Nc1ccccc1`, under setting [1], the AC50 was 20 µM [rising, single point]. For the compound `CN1CCN(C2=Cc3cc(Cl)ccc3Sc3cc(F)ccc32)CC1`, the AC50 under setting [2] was 22.4 µM [falling, partial curve] and the concentration at half-maximal activity (AC50) under setting [1] is 20 µM [falling, partial curve]. For `CC1CC(C)CN(C(=O)c2ccc3c(=O)n(Cc4ccc5c(c4)OCO5)c(=S)[nH]c3c2)C1` (configuration not stated), the concentration at half-maximal activity (AC50) was 6.31 µM [rising, full curve, poor fit] under setting [2] and 7.08 µM [rising, full curve] under setting [1]. Consider `CCOC(=O)Cn1c(=O)n(CC2CCCO2)c2nc(-c3cccc(C)c3)nc(C(N)=O)c21` (configuration not stated), for which the concentration at half-maximal activity (AC50) under setting [2] was 5.62 µM [falling, single point] and the half-maximal activity concentration (AC50) under setting [1] was 4.47 µM [falling, single point]. Consider `COc1ccc(N2CCN(C(CNC(=O)c3cccc(Cl)c3)c3cccnc3)CC2)cc1` (configuration not stated), for which the concentration at half-maximal activity (AC50) was 10 µM [rising, partial curve] under setting [2] and 12.6 µM [rising, partial curve] under setting [1]. `O=C(O)c1ccc2cccnc2n1`: the AC50 was 0.126 µM [falling, full curve, poor fit] under setting [2] and 6.31 µM [falling, single point] under setting [1].

Turning to `O=c1cc(N2CCCCC2)c(-c2ccccc2)nn1Cc1cccc(Cl)c1`, the half-maximal activity concentration (AC50) is 25.1 µM [falling, partial curve] under setting [2] and 20 µM [falling, partial curve] under setting [1].

Regarding `C#C[C@@]1(O)CC[C@@H]2[C@@H]3CCC4=CC(=O)CC[C@@H]4[C@H]3CC[C@]21C`, the AC50 is, setting by setting: under setting [2], 3.55 µM [falling, single point]; under setting [1], 10 µM [falling, partial curve]. `Cc1ccc(OCC(=O)c2cc(C)n(-c3ccccc3)c2C)c([N+](=O)[O-])n1`: the AC50 under setting [1] was 11.2 µM [rising, partial curve, poor fit]. Regarding `CCN(Cc1ccccc1)C(=O)Cn1cc(S(=O)(=O)Cc2cccc(Cl)c2)c2ccccc21`, the AC50 reads like this: under setting [2], 0.0708 µM [falling, partial curve]; under setting [1], 0.112 µM [falling, partial curve]. Consider `COc1cc(Cl)c(S(=O)(=O)N2CC(C)OC(C)C2)cc1Cl` (configuration not stated), for which, under setting [2], the AC50 was 5.62 µM [rising, single point]. With `CCC(C)NC(=O)CSc1c2c(nc3ccccc13)CCCC2` (configuration not stated), under setting [1], the AC50 was 31.6 µM [falling, single point]. For the compound `Cc1nn(-c2ccc(Cl)cc2)c2[nH]c(=O)c(CNCc3ccc4c(c3)OCO4)cc12`, the AC50 under setting [1] is 2.51 µM [rising, full curve, poor fit]. For `CC1CCN(C(=O)CSc2c(C(C)C)cnc3c2c(=O)n(C)c(=O)n3C)CC1`, the AC50 under setting [2] was 0.316 µM [rising, partial curve, poor fit]. Regarding `CC1=[N+]([O-])C(C)(C)C(c2ccc(Br)cc2)=[N+]1[O-]`, the AC50 under setting [2] is 31.6 µM [rising, single point]. For the compound `Cc1nc(Cc2ccc(OC(C)C)cc2)[nH]c(=O)c1CC(=O)O`, the concentration at half-maximal activity (AC50) under setting [2] was 0.501 µM [falling, full curve, poor fit] and the concentration at half-maximal activity (AC50) under setting [1] is 7.94 µM [falling, partial curve, poor fit]. For the compound `O=C(c1cccs1)N1CCCN(c2ncnc3scc(-c4ccccc4)c23)CC1`, the AC50 under setting [1] is 22.4 µM [falling, single point]. For `O=C(Cn1cc(S(=O)(=O)N2CCCC2)c(S(=O)(=O)N2CCCC2)c1)Nc1cccc(F)c1`, the AC50 under setting [2] is 5.01 µM [falling, partial curve]. On to `CC1C/C(=C/c2ccco2)C(=O)/C(=C/c2ccco2)C1` (configuration not stated), for which the half-maximal activity concentration (AC50) under setting [2] is 5.62 µM [falling, single point] and the concentration at half-maximal activity (AC50) under setting [1] is 5.62 µM [falling, single point]. Turning to `O=C(CSc1nnc(Cc2cccs2)n1CCc1ccccc1)N1CCCc2ccccc21`, the AC50 under setting [1] was 35.5 µM [rising, single point]. Consider `CCOc1ccc2nc(SC3CC(=O)N(c4ccc(OC)cc4)C3=O)sc2c1` (configuration not stated), for which the AC50 was 25.1 µM [falling, single point] under setting [2] and 35.5 µM [falling, partial curve] under setting [1]. Consider `COc1ccccc1NC(=O)CSc1nnnn1C`, for which the AC50 under setting [1] was 5.62 µM [rising, single point].

Regarding `Cc1csc2nc(COC(=O)c3ccccc3NC(=O)COc3ccccc3F)cc(=O)n12`, the AC50 by setting is: under setting [2], 35.5 µM [falling, single point]; under setting [1], 35.5 µM [falling, single point]. As to `O=C(c1ccc(NS(=O)(=O)c2cccs2)cc1)N1CCCCC1`, the concentration at half-maximal activity (AC50) under setting [1] was 1.26 µM [rising, partial curve]. For the compound `Cc1ccc2nc(N3CCN(Cc4ccc(F)cc4)C3=O)c(C)cc2c1`, the AC50 under setting [2] is 7.94 µM [rising, partial curve, poor fit] and the AC50 under setting [1] was 14.1 µM [rising, partial curve]. For the compound `Cc1ccccc1-c1ccc2ncnc(N3CCN(C)CC3)c2c1`, the AC50 was 3.16 µM [falling, partial curve, poor fit] under setting [2] and 3.98 µM [falling, partial curve, poor fit] under setting [1].

As for `COC(=O)c1c(NC(=O)CN2CCN(Cc3ccc4c(c3)OCO4)CC2)sc(C)c1C`, the AC50 under setting [2] was 11.2 µM [rising, single point]. As to `O=c1c2cn[nH]c2nc(SCc2cccc(Br)c2)n1-c1ccc(Cl)cc1`, the AC50 under setting [2] is 35.5 µM [falling, partial curve, poor fit]. On to `O=C(OCC(=O)c1cccs1)c1ccc([N+](=O)[O-])o1`, for which the AC50 under setting [1] was 0.891 µM [falling, full curve, poor fit]. As for `C[C@H]1CS(=O)(=O)CCN1/N=C\c1ccc([N+](=O)[O-])o1`, the AC50 by setting is: under setting [2], 0.00316 µM [falling, full curve]; under setting [1], 0.00316 µM [falling, full curve].

For the compound `Cc1cccc(C)c1NS(=O)(=O)c1ccc(F)cc1`, under setting [2], the half-maximal activity concentration (AC50) was 35.5 µM [rising, partial curve]. The same measure, in the same setting: to `CCN1CCN(c2cc3c(cc2F)c(=O)c(S(=O)(=O)c2ccc(OC)cc2)cn3CC)CC1` belongs 0.0891 µM [falling, partial curve]. In the case of `CSc1nc(SCC(N)=O)c2c3c(sc2n1)CN(C)CC3`, the AC50 is 17.8 µM [rising, single point] under setting [2] and 15.8 µM [rising, single point] under setting [1]. `COc1cc2nc(/C=C/c3cc(OC)c(OC)c(OC)c3)sc2cc1SC`: the half-maximal activity concentration (AC50) by setting is: under setting [2], 35.5 µM [falling, single point]; under setting [1], 4.47 µM [rising, single point]. On to `O=Cc1cn(CC(=O)N2CCCc3ccccc32)c2ccccc12`, for which the AC50 under setting [1] was 31.6 µM [rising, single point]. For the compound `CCOc1cc(CNCCSc2nnnn2C)cc(Br)c1OCc1ccccc1`, the AC50 under setting [1] was 20 µM [rising, single point]. With `O=C(CSc1nnc(-c2ccncc2)o1)N1CCc2ccccc2C1`, under setting [1], the AC50 was 2.24 µM [rising, single point]. Turning to `CCC(C)C(=O)Nc1nc2ccc(S(C)(=O)=O)cc2s1` (configuration not stated), the AC50 under setting [2] was 10 µM [falling, partial curve, poor fit]. With `CCN1CCN(c2oc(-c3ccc(COc4ccc(C)cc4)o3)nc2C#N)CC1`, the AC50 under setting [2] is 10 µM [falling, partial curve, poor fit]. Turning to `CCOC(=O)Cc1csc(NC(=O)Nc2cccc(Cl)c2)n1`, the half-maximal activity concentration (AC50) under setting [2] was 15.8 µM [rising, single point] and the AC50 under setting [1] is 35.5 µM [rising, single point].

As to `Cc1ccc(NC(=O)c2cc(S(=O)(=O)NCCc3ccccc3)ccc2F)cc1Cl`, the half-maximal activity concentration (AC50) under setting [2] was 35.5 µM [falling, single point] and the half-maximal activity concentration (AC50) under setting [1] was 22.4 µM [falling, single point].

Turning to `O=C(c1ccc2c(=O)n(-c3ccccc3)c(=O)[nH]c2c1)N1CCCCC1`, the half-maximal activity concentration (AC50) under setting [1] was 31.6 µM [rising, single point]. On the same count and under the same terms, in the case of `CCN1C(=O)/C(=C/N(C(C)=O)c2ccccc2)N(c2ccccc2)C1=S` it was 31.6 µM [rising, single point]; in that of `CCOC(=O)N1CCN(C(=O)CSc2cc(C)nc3c(-c4ccccc4OC)c(C)nn23)CC1`, 8.91 µM [rising, partial curve, poor fit].
